# Data reported in paper PMC7862700.
# The list shows a part of the results, in another mix than the full data. At the low end of the ranking the order means little.
# Biological target: SPI1 (UniProt P17947)
# Assay: DAPPL (digital affinity profiling via proximity ligation, sequencing)
# Conditions: 10 mM Tris-HCl pH 7.5, 50 mM NaCl, 1 mM DTT, 4% glycerol, room temperature, 30 min; GST-TFs on glutathione beads, 16-mer random dsDNA library, 0.1% …; high values mean tight binding; double strand, one strand shown; scale: fold enrichment (6-mer frequency, TF over GST control)
row,Sequence,binding signal
1,ATCGGG,0.461
2,GGCCGT,0.403
3,AGCCTG,0.895
4,GTAGAC,0.757
5,AGGGAG,0.375
6,AGGTTG,0.82
7,GGTTGC,0.925
8,GATGTG,0.958
9,GCAGAC,0.743
10,CGGTTG,0.772
11,GACGGA,0.496
12,CCAGTC,0.264
13,AGCGCG,0.781
14,GTTGGA,0.53
15,CAAGGG,0.907
16,CCGTCG,0.855
17,TCGGCA,0.726
18,AGCGGT,0.758
19,AGGAGG,0.221
20,GCGGCG,0.846

# Quoted at random: 2 records from the list, in no set order.
row,Sequence,binding signal
14,GTTGGA,0.53
3,AGCCTG,0.895

# Remaining list, next part:

row,Sequence,binding signal
1,GAGGTC,0.54
2,AGGAGT,0.34
3,CGCAGG,0.888
4,TACAGT,0.873
5,CGCATG,0.604
6,CGTGAC,0.522
7,CGGCGA,0.721
8,GCGTAA,0.884
9,GCTGGA,0.785
10,CGGGGT,0.647
11,GCGGAG,0.268
12,CTGGAG,0.643
13,CAGCCA,0.821
14,TCGTGT,0.733
15,GTGAGC,0.383
16,GACAGA,0.631
17,GACGGT,0.469
18,AAGCCA,0.784
19,TGAGGG,0.651
20,TAGTCG,0.485
